Values of other authors, collected in patent US20100190199A1, “GPR30 ESTROGEN RECEPTOR IN BREAST AND OVARIAN CANCERS” (Rhode Island Hospital, priority 2008, published 2010).
For at least one compound, name, drawing or mass did not settle the structure.

System: alpha and beta ERs
Conditions: cited from earlier work

**Q.** Which “Binding preference ERα versus ERβ” value does the source give for C[C@]12CC[C@@H]3c4ccc(O)cc4CC[C@H]3[C@@H]1CCC2=O [estrone] here?
**A.** bind preferentially to the alpha receptor
